Results are given as percent effect. How 0% and 100% were set is not recorded. Most values in the screen are low, and negative values occur. This is an unselected part of the compounds tested. A dash means the value is not listed here; it may have been measured.

Protein sequences, listed by entry. Tags and fused reporters are not part of them.
UniProt P9WPC5, whole entry: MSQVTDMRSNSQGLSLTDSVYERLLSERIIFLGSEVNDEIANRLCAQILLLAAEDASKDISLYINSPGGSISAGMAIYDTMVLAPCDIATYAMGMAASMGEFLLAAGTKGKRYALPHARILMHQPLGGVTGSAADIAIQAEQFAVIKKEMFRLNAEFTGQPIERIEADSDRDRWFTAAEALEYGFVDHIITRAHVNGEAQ
UniProt P9WPC3, whole entry partner: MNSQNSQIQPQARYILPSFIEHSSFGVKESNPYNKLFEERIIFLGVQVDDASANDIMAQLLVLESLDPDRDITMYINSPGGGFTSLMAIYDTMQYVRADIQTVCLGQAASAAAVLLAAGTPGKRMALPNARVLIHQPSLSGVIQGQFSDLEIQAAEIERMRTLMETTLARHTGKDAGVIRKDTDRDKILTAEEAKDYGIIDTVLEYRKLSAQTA
UniProt I6X8D2, whole entry: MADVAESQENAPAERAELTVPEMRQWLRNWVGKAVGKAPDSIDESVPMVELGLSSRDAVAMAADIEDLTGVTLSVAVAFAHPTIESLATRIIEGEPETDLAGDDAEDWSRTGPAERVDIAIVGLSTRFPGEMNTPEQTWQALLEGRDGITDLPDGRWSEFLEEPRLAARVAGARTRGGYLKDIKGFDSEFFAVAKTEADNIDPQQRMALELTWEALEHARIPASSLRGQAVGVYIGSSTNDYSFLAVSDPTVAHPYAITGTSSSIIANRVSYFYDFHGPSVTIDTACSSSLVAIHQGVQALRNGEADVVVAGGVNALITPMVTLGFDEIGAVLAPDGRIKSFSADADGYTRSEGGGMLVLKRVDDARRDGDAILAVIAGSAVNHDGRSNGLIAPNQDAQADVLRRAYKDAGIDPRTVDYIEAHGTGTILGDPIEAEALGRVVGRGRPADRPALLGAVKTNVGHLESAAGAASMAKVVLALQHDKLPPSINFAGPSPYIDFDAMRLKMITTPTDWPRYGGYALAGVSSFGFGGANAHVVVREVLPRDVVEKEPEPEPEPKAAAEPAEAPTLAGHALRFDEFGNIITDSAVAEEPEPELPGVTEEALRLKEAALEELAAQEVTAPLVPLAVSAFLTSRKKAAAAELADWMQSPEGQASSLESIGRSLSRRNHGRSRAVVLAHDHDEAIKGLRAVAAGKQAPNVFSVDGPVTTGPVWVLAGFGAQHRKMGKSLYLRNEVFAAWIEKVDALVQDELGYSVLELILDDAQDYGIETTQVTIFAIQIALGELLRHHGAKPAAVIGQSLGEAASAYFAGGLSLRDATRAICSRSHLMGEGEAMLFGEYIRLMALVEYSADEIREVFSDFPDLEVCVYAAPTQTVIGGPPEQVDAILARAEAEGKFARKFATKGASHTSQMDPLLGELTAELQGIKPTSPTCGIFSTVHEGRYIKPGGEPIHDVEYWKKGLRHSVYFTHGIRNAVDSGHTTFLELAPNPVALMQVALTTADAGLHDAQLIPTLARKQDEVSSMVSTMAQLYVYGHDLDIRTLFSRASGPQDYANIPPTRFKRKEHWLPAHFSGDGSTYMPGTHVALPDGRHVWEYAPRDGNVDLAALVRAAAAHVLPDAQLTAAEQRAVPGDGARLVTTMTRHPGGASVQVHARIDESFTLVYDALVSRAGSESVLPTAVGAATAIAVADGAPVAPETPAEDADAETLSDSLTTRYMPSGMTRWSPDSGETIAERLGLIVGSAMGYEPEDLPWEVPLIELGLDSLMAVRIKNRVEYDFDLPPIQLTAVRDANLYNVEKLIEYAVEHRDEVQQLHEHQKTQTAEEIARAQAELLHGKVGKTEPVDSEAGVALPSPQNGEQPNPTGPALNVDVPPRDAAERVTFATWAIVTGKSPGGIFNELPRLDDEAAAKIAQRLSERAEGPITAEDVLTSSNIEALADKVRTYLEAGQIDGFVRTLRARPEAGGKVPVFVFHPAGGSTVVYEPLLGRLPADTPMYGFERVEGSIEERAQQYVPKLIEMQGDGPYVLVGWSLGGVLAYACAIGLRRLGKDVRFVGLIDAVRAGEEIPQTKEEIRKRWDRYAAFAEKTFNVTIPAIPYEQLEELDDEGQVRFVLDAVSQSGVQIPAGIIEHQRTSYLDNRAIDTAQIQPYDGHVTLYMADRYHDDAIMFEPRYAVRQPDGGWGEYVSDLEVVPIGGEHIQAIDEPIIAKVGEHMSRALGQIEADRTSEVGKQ
UniProt P9WFT3, whole entry: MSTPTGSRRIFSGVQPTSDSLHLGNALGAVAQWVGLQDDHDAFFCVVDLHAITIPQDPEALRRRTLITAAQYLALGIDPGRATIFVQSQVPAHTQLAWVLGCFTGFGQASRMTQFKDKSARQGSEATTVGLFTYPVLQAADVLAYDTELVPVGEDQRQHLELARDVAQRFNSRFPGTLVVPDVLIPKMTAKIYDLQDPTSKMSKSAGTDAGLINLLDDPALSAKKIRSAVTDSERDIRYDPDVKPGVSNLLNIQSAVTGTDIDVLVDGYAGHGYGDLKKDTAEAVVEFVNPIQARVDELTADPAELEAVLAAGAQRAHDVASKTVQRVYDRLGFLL

A: 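ClpP1P2, Mycobacterium tuberculosis (UniProt P9WPC5 and UniProt P9WPC3). Protease assay of ClpP1P2, read by the AMC dye that it sets free. Tested at 50 µM. Higher reads as stronger inhibition, judged from the few compounds that gave an IC50. Most other retested compounds had strongly negative values. Size under these conditions: about 69,000 compounds, about 10 of them at 50% or above in at least one test.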
B: 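Enzyme assay of the thioesterase domain of polyketide synthase 13; the read-out is not stated. Target: Polyketide synthase Pks13, Mycobacterium tuberculosis (UniProt I6X8D2). Compounds at 30 µM. The record gives no direction; the compounds picked for IC50 retests had high values, so higher reads as stronger inhibition. Size under these conditions: about 67,000 compounds, about 300 of them at 50% or above in at least one test.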
C: 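Enzyme assay of tryptophanyl-tRNA synthetase; the read-out is not stated. Target: Tryptophan-tRNA ligase, Mycobacterium tuberculosis (UniProt P9WFT3). Compounds at 10 µM. Direction is not recorded; retested compounds ran higher, which suggests that high means inhibition. About 65,000 compounds were tested under these conditions; 0.098% (about 64) showed 50% or more at least once.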

Compound	A	B	C
CC1CCN(C(=O)CN(Cc2ccco2)C2CC2)CC1	3.064	-10.86	-2.267
CNC(=O)c1ccc(C2CN(C(=O)c3cnn(C)c3)CCO2)nc1 (configuration not stated)	-1.126	27.16	-
CC(C)NC(=O)CN1CCSC2(CCCCC2)C1	-0.3556	2.791	-2.107
CCN(CC)c1ccc(C(=O)N2C[C@@H]3CC[C@H](C2)N(CCOC)C3)cc1	-5.926	-7.732	5.251
CCc1cnc(C)nc1NCCN1CCCC(C(N)=O)C1 (configuration not stated)	-4.701	-38.3	2.811
CN1CCN(C(=O)C2(S(C)(=O)=O)CCCC2)Cc2ccccc21	-6.826	0.1393	-0.08223
COc1ccc(OC)c(C(O)CN2CCN(c3cccc(C)c3)CC2)c1 (configuration not stated)	6.585	-5.649	3.522
Cn1cc(CCNCC2CNc3ccnn3C2)cn1 (configuration not stated)	18.34	-4.18	-6.416
CCn1c(Cn2cncn2)nnc1C1CCN(Cc2cccnc2)CC1	1.218	6.797	-3.595
COc1ncccc1C(=O)NCCn1nc(C)ccc1=O	1.642	-3.046	-3.843
NC(=O)C1CN(C(=O)Nc2ccccc2OCC(F)(F)F)CCO1 (configuration not stated)	-13.39	4.495	-6.772
COc1c(C)cnc(CN(C)C2CCCCC2)c1C	7.48	20.09	-2.821
CC(C)Nc1nc2c(s1)C(=O)CN(C(=O)NCc1ccccc1)C2	-15.62	0.4979	-
CC(C)c1nc(CNc2nccc(CCC(F)(F)F)n2)cs1	-5.998	-15.54	-0.6744
Fc1ccc(-c2nc(CN3CCCC3Cn3cncn3)co2)cc1 (configuration not stated)	-8.926	-25.38	53.86
CNC(=O)Cc1ccccc1NC(=O)N[C@H]1c2ccccc2C[C@H]1O	-5.817	-2.17	2.106
O=C(NCCNc1cc(-n2cccc2)ncn1)c1cccs1	2.641	-8.589	-0.9878
CCn1c(C2CCCN(Cc3cc(F)ccc3OC)C2)nn(C)c1=O (configuration not stated)	-1.676	-18.98	-2.726
Cn1ccnc1CN1CCC2(CC(=O)N(c3ccccn3)C2)C1 (configuration not stated)	-2.19	-	-1.895
O=C(COc1ccc2c(c1)OCC2O)NCc1ccco1 (configuration not stated)	-19.02	-19.46	-4.379
CCS(=O)(=O)N1CC[C@H]2C(=O)N(Cc3cccnc3)CCO[C@H]2C1	-0.2145	-20.33	-3.374
Cc1ccc(C(=O)N2C[C@H]3CC[C@@H]2CN(S(=O)(=O)N(C)C)C3)c(O)c1	5.579	-16.77	-4.897
CCN1CCC(CC(=O)NCCc2nc(C)c(Cl)s2)CC1	-6.471	-18.03	0.3127
CN(C)C(=O)N[C@@H]1CN(C2CCOCC2)[C@@H]2CCCO[C@@H]21	5.167	-25.27	-0.2114
COc1c(Cl)cccc1NCc1csc(NC(C)=O)n1	-0.757	-	-3.229
CN(C)c1ccc(CC2CCCN(c3cnccn3)C2)nn1 (configuration not stated)	-5.322	12.7	-2.649
Cc1ccc(NC(=O)N2CCC(CO)(Nc3ccccc3)CC2)cc1	14.16	-13.38	-3.018
O=C(NCc1ccnc(OCC(F)(F)F)c1)NCC1COCCO1 (configuration not stated)	-11.98	-11.34	-6.147
Cc1nc(CN(C)C2CCN(Cc3nnc(C4CC4)o3)C2)no1 (configuration not stated)	-2.194	-23.51	-1.988
CCc1nc(CN2CCCC(NCc3nc(C)c(C)o3)C2)no1 (configuration not stated)	-52.41	-11.04	-6.144
OCC1CCCN1c1cc(NCCc2nccs2)ncn1 (configuration not stated)	12.85	5.603	-4.351
O=C1CCCC2=C1C(c1ccc(Cl)cc1Cl)Nc1nonc1N2 (configuration not stated)	-14.13	-41.72	0.7148
O=C(c1ccoc1)N1CC[C@@H]2[C@@H](CC1)OCCN2c1cccnc1	2.729	-39.38	-5.426
Cc1nc2c(c(N3CCCC(CO)C3)n1)CCN(Cc1ccco1)CC2 (configuration not stated)	-5.946	-21.7	-3.614
O=C1NCCCCC1NS(=O)(=O)N1CCCCC1 (configuration not stated)	9.504	-0.1228	0.3632
Cc1ccc(N2CCCC(NCc3cccc4c3OCCO4)C2)nn1 (configuration not stated)	14.85	-7.596	-2.113
CCOCCC(=O)NCCNc1nccc(C(F)(F)F)n1	1.378	12.33	-3.99
Cc1cnc(Nc2cccc(C3CCCN3Cc3cn(C)nc3C)n2)s1 (configuration not stated)	-8.953	6.616	-2.676
COCCn1cc(CC(=O)Nc2c(C)nn(C)c2C)c2ccccc21	-13.05	-63.15	-1.715
Cc1ccc(F)cc1-c1ccc(N)nc1	-13.59	7.453	14.97
Cc1nc(NCCC23CCCN2CCC3)cc(C2CCNCC2)n1	-3.009	-24.34	-2.166
Cc1cc(NC(=O)CN2CCN(c3nccs3)C(C)C2)no1 (configuration not stated)	-7.888	-1.054	-2.941
CCOc1ccc(NC(=O)c2cc(C)c(C)o2)cc1CO	1.505	-41.96	-0.1009
O=C1CC(c2ccc(C(F)(F)F)cc2)c2snc(C(=O)O)c2N1 (configuration not stated)	8.792	-	1.425
CN(C)C(=O)N1C[C@@H]2CC[C@H](C1)N(C(=O)c1c(Cl)cccc1Cl)C2	-18.83	-5.716	-2.102
Cc1cccc(S(=O)(=O)NCC(C)N2CCN(C)CC2)c1Cl (configuration not stated)	-9.116	-6.173	1.574
Cc1nc(CN2CCCN(C(=O)c3ccccn3)CC2)oc1C	-1.022	-12.13	-1.486
O=C(CN1CCCC(Cn2cncn2)C1)NCc1ccccc1F (configuration not stated)	-17.2	-5.788	-4.231
CC(=O)c1cc(CC(=O)NCc2ccc(F)cc2)cs1	-8.701	-11.68	-3.173
CCN1CCCN(C(=O)c2cnc(OC(C)C)c(Cl)c2)CC1	-7.872	-10.04	-5.181
Cc1cc(C)n(CC2CCCCN2CCc2ccncc2)n1 (configuration not stated)	-1.16	-8.371	-10.4
COCCN(C)CC(=O)N1C[C@@H](NC(C)=O)[C@H](c2ccc(OC)cc2)C1	-7.224	-6.439	-6.711
CN(C)CCn1ccc(NC(=O)NC(C)(C)c2nccs2)n1	-2.204	-8.544	-0.1271

The last 6 entries again:

Compound	A	B	C
O=C(CN1CCCC(Cn2cncn2)C1)NCc1ccccc1F (configuration not stated)	-17.2	-5.788	-4.231
CC(=O)c1cc(CC(=O)NCc2ccc(F)cc2)cs1	-8.701	-11.68	-3.173
CCN1CCCN(C(=O)c2cnc(OC(C)C)c(Cl)c2)CC1	-7.872	-10.04	-5.181
Cc1cc(C)n(CC2CCCCN2CCc2ccncc2)n1 (configuration not stated)	-1.16	-8.371	-10.4
COCCN(C)CC(=O)N1C[C@@H](NC(C)=O)[C@H](c2ccc(OC)cc2)C1	-7.224	-6.439	-6.711
CN(C)CCn1ccc(NC(=O)NC(C)(C)c2nccs2)n1	-2.204	-8.544	-0.1271

Source: ChEMBL document CHEMBL3988442, “University of Dundee, Small-Polar-MMV Screening Library” (2021).